# Test results as given in the supplement of paper PMC10849652.
# The chains behind the UniProt entries cited, without tags or fusion partners. Where a name states a change or a piece, a line headed by the entry shows the natural chain unless it says otherwise.
# UniProt A6NEQ0: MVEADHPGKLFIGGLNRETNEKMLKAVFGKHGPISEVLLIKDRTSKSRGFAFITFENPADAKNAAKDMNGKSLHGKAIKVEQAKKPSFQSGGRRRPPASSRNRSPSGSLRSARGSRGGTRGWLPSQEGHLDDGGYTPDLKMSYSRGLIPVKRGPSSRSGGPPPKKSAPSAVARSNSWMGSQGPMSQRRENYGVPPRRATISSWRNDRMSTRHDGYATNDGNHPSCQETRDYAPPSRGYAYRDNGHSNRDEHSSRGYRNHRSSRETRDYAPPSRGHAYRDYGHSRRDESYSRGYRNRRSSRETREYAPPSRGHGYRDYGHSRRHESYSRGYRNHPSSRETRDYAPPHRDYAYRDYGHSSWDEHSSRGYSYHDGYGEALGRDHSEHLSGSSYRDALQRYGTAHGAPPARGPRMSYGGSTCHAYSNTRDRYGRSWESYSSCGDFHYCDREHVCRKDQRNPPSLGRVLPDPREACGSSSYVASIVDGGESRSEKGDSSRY
# UniProt P48378: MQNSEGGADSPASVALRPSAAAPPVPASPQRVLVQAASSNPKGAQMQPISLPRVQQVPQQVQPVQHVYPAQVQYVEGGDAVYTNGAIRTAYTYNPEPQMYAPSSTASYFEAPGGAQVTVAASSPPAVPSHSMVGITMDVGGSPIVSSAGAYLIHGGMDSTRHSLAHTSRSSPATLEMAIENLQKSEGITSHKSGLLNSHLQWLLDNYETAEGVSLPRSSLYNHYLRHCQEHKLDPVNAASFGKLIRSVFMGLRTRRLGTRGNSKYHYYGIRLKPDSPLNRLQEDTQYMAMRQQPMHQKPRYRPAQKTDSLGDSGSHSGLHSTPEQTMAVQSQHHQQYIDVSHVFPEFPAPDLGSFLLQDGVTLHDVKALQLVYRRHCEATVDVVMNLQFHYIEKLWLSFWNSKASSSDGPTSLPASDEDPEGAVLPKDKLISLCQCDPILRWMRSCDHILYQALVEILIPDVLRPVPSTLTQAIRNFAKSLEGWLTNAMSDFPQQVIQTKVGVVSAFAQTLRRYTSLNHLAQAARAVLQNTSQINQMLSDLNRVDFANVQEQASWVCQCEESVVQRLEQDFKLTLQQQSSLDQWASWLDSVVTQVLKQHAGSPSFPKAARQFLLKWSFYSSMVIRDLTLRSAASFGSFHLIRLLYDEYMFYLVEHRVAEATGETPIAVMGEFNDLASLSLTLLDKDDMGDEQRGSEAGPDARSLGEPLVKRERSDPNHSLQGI
# UniProt Q15291, whole entry, looked up: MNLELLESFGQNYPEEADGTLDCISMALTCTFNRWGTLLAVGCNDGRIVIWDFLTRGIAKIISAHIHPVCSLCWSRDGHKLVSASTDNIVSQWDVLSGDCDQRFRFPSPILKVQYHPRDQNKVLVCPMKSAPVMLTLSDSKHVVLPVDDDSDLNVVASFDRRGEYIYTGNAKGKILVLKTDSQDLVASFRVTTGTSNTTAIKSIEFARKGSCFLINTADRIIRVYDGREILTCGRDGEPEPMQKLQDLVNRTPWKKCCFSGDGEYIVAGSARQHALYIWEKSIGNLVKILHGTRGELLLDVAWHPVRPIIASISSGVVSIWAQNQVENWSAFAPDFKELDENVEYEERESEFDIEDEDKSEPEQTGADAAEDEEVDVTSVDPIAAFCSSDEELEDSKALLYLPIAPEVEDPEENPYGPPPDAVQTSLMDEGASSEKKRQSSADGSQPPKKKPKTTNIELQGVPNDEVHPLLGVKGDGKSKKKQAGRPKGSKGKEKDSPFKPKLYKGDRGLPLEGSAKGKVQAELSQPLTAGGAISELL
# UniProt Q08999: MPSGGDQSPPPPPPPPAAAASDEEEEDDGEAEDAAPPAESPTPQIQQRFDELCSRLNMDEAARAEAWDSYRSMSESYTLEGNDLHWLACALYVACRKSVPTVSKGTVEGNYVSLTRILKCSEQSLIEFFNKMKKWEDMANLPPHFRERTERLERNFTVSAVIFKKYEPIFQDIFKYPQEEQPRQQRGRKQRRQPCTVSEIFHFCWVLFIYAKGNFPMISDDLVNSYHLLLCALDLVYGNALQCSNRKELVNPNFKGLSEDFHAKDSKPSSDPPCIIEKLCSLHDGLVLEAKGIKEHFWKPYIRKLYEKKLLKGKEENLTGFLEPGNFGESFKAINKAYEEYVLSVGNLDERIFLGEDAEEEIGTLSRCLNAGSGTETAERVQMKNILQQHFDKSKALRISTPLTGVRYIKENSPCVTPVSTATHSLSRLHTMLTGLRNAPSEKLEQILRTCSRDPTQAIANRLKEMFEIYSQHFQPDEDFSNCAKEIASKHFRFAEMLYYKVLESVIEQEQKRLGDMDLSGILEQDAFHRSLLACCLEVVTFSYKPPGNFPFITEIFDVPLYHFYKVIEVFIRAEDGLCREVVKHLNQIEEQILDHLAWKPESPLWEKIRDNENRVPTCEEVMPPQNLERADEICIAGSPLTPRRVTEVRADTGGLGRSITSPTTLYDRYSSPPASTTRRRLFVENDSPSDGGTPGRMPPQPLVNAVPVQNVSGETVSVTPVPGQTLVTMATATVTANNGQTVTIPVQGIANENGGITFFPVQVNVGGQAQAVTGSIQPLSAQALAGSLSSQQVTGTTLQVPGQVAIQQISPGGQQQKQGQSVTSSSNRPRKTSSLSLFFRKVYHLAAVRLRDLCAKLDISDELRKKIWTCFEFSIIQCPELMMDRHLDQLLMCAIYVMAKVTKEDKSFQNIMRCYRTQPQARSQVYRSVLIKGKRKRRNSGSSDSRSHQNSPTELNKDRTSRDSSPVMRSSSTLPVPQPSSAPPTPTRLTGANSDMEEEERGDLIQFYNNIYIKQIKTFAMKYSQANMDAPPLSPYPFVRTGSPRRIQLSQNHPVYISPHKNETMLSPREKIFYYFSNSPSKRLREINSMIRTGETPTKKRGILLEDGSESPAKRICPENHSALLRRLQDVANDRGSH
# UniProt Q9HBD1: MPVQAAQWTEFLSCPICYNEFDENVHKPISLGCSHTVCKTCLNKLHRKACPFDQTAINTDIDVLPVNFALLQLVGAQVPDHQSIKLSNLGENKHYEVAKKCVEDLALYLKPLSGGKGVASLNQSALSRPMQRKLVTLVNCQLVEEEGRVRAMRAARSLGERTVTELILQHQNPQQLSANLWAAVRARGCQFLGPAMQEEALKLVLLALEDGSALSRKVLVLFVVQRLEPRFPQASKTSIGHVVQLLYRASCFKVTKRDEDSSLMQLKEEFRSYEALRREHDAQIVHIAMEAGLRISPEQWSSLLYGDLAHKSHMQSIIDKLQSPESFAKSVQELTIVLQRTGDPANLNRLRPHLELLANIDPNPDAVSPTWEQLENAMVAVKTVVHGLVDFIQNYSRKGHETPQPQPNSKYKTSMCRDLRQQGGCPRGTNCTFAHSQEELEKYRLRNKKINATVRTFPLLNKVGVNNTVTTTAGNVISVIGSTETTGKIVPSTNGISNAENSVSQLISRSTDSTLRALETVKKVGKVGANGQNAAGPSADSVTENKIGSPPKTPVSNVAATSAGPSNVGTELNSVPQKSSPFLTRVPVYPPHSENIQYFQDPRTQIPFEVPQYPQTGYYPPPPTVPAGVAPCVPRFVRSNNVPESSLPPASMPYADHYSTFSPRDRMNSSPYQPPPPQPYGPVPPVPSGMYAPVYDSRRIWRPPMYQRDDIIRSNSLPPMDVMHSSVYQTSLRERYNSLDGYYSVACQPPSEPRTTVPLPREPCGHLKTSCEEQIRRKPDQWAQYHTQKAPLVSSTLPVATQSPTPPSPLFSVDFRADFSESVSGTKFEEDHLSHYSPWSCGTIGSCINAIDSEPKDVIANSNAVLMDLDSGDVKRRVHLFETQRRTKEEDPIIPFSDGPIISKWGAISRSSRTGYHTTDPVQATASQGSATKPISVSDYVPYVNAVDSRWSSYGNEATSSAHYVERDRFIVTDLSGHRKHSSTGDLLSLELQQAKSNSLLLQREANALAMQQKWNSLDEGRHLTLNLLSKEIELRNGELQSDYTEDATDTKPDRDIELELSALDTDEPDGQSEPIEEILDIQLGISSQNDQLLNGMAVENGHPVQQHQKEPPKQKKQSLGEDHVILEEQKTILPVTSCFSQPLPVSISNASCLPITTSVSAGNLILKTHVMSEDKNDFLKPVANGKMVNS
# UniProt Q9HCM1: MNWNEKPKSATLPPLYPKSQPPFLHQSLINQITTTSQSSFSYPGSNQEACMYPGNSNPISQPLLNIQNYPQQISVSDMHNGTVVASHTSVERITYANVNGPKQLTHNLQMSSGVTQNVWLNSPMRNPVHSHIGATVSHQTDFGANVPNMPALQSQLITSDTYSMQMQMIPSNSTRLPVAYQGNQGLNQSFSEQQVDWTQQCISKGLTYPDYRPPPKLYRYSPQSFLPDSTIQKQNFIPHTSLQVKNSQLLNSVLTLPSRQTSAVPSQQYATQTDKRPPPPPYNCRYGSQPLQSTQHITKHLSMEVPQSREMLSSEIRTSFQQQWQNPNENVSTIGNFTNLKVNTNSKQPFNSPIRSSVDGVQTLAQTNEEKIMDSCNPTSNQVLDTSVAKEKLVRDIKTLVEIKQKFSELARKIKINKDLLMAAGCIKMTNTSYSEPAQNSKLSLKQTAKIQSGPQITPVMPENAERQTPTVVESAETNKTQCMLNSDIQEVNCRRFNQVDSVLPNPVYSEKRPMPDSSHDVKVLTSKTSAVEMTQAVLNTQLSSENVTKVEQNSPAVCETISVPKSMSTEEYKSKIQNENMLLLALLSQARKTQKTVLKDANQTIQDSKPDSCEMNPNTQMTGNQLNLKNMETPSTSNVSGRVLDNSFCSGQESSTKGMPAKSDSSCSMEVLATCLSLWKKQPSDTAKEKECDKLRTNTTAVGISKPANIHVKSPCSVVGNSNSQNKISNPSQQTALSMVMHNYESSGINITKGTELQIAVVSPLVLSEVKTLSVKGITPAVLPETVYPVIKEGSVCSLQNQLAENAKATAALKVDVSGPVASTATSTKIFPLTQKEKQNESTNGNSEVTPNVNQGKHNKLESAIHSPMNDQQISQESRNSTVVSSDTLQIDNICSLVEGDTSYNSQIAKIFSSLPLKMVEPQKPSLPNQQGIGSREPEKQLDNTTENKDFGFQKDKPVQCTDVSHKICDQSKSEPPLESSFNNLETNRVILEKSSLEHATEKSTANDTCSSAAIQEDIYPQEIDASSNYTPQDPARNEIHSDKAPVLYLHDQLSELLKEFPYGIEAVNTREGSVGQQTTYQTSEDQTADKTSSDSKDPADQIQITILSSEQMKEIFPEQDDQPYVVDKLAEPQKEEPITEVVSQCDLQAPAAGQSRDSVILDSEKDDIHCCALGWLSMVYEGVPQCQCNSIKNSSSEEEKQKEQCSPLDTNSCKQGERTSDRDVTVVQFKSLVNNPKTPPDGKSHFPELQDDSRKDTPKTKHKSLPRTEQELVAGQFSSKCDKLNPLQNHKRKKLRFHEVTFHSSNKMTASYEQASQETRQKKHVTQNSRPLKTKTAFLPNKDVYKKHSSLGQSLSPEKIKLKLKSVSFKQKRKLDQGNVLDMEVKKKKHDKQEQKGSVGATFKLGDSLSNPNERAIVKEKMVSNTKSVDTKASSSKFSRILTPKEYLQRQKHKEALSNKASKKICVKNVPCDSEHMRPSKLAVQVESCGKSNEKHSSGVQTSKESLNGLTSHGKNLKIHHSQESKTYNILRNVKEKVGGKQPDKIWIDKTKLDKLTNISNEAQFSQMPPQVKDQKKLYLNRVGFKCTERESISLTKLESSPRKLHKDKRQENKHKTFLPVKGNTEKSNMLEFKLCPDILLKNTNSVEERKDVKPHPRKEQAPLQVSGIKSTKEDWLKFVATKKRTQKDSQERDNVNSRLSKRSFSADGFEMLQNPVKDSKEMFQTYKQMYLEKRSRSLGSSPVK
# UniProt P49795: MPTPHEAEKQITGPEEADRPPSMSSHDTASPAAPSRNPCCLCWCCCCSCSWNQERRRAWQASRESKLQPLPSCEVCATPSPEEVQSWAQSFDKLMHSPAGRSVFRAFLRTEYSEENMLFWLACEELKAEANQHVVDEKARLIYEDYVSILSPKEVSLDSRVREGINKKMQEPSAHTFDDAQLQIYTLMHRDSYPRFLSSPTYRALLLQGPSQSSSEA
# UniProt Q09028, whole entry, looked up: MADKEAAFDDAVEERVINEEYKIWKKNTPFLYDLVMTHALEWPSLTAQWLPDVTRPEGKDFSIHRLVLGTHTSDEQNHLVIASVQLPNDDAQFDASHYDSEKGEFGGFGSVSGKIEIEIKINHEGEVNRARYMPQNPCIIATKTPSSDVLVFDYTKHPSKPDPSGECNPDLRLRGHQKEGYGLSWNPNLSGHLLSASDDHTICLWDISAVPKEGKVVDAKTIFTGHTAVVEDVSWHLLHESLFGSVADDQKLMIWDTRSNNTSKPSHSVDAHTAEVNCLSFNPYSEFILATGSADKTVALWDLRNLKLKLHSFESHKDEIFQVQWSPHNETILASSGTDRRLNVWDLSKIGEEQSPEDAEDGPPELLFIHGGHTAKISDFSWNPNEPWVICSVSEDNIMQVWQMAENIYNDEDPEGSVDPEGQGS
# The other results are listed elsewhere or left out.
# Compound: CC1=C(C2=C(C=C1)C(=O)C3=CC=CC=C3N2CCCN)C
# Assay: log2 fold change, soluble protein after heating vs DMSO (PISA); higher = thermal stabilisation; K562 lysate, 10 uM; active = over 0.2 and 3.5 SD of the protein, either way, in both replicates (recomputed)
# How it was run: (§1)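 Quantification was by TMTpro 16plex LC-MS/MS with equalised channel sums, applied to the supernatant after 21,000xg for 90 min. Samples were crude K562 extract at 1 mg/mL protein in PBS pH 7.4 with 1 mM MgCl2, treated with 10 μM compound for 30 min, heated for 3 min across 48°C-58°C, pooled and brought to 0.5% NP-40 at 4°C. Values are log-two fold changes in thermal stability relative to solvent controls, from duplicates.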
row,Target,log2 fold change
1,RBMY1E (UniProt A6NEQ0),inactive: -0.093
2,RFX3 (UniProt P48380),inactive: 0.028
3,RELA (UniProt Q04206),inactive: 0.001
4,RFX2 (UniProt P48378),inactive: -0.078
5,RHD (UniProt Q02161),inactive: 0.06
6,RBBP5 isoform 2 (UniProt Q15291),inactive: 0.038
7,RBL2 (UniProt Q08999),inactive: -0.004
8,RC3H2 (UniProt Q9HBD1),inactive: -0.088
9,RBKS (UniProt Q9H477),inactive: -0.146
10,RBMXL1 (UniProt Q96E39),inactive: -0.111
11,RELCH (UniProt Q9P260),inactive: -0.087
12,RESF1 (UniProt Q9HCM1),inactive: 0.025

# Compound: CC1=C(C=C(C=C1)NC(=O)C2=CC(=CC=C2)C(C)(C)C#N)NC3=CC4=C(C=C3)N=CN(C4=O)C
# Assay: as above
# How it was run: as §1
row,Target,log2 fold change
1,RBM45 (UniProt Q8IUH3),inactive: 0.038
2,RBMY1E (UniProt A6NEQ0),inactive: 0.059
3,RELA (UniProt Q04206),inactive: 0.013
4,RFX2 (UniProt P48378),inactive: 0.013
5,RBBP5 isoform 2 (UniProt Q15291),inactive: -0.302
6,RBM4 isoform 3 (UniProt Q9BWF3),inactive: -0.092
7,RELL1 (UniProt Q8IUW5),inactive: 0.088
8,RBM4B (UniProt Q9BQ04),inactive: 0.04
9,RBL2 (UniProt Q08999),inactive: -0.145
10,RC3H2 (UniProt Q9HBD1),inactive: -0.015
11,RGS19 (UniProt P49795),inactive: -0.059
12,RGPD6 (UniProt H7BZ48),inactive: 0.011
13,RBMXL1 (UniProt Q96E39),inactive: -0.054
14,RHBDD3 (UniProt Q9Y3P4),inactive: -0.077
15,RASSF3 (UniProt Q86WH2),inactive: -0.072
16,RBP4 (UniProt P02753),inactive: -0.234
17,RELCH (UniProt Q9P260),inactive: -0.088
18,RESF1 (UniProt Q9HCM1),inactive: 0.144
19,RASSF7 (UniProt Q02833),inactive: -0.078

# Compound: CC1=C(C=C(C=C1)NC(=O)C2=CC(=CC=C2)N(C)C)NC(=O)C3=CC=C(C=C3)O
# Assay: as above
# How it was run: as §1
row,Target,log2 fold change
1,RELA (UniProt Q04206),inactive: -0.043
2,RHD (UniProt Q02161),inactive: -0.052
3,RBBP5 isoform 2 (UniProt Q15291),inactive: -0.025
4,RBM18 (UniProt Q96H35),inactive: 0.035
5,RBBP4 isoform 4 (UniProt Q09028),inactive: -0.026
6,RBL2 (UniProt Q08999),inactive: 0.002
7,RC3H2 (UniProt Q9HBD1),inactive: -0.177
8,RBKS (UniProt Q9H477),inactive: 0.404
9,RCOR2 (UniProt Q8IZ40),inactive: -0.022
10,RBM12B (UniProt Q8IXT5),inactive: 0.118
11,RHBDD2 isoform 2 (UniProt Q6NTF9),inactive: 0.05
12,RESF1 (UniProt Q9HCM1),inactive: 0.021

# Compound: CC1=CC=C(C=C1)SC2=C3C=C(SC3=CN=C2)C(=O)N
# Assay: as above
# How it was run: as §1
row,Target,log2 fold change
1,RBM45 (UniProt Q8IUH3),active: 0.487
2,RHBDD1 (UniProt Q8TEB9),inactive: 0.038
3,RBMY1E (UniProt A6NEQ0),inactive: -0.016
4,RELA (UniProt Q04206),inactive: -0.016
5,RFX2 (UniProt P48378),inactive: -0.077
6,RBBP5 isoform 2 (UniProt Q15291),inactive: -0.114
7,RBBP4 isoform 4 (UniProt Q09028),inactive: -0.031
8,RBL2 (UniProt Q08999),inactive: 0.008
9,RC3H2 (UniProt Q9HBD1),inactive: 0.083
10,RASSF3 (UniProt Q86WH2),inactive: 0.142
11,RBBP4 isoform 2 (UniProt Q09028),inactive: 0.006
12,RELCH (UniProt Q9P260),inactive: -0.17
